# Some entries share one result that the patent states for a list of compounds.
# Target: T1, CS (Sus scrofa, UniProt P00889)
# T1 sequence (P00889 28-464): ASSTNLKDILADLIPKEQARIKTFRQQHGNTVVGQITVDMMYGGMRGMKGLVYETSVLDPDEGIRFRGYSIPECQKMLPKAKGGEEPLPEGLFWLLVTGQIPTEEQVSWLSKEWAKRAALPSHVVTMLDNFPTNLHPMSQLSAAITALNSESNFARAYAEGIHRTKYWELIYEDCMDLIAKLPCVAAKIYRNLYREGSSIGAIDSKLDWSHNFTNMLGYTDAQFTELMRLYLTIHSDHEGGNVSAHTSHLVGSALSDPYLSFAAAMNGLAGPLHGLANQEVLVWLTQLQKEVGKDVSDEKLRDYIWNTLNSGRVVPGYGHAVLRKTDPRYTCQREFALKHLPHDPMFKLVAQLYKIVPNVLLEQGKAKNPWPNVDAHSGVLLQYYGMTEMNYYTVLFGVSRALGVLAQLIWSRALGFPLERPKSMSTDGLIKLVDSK
# Test: Chaperone assay, thermal aggregation of CS at 50° C.
# Type: biochemical
# Conditions: 10:1 molar ratio of peptide:CS, sixty minutes, 340 nm
# Protocol: The chaperone activity of the peptides was measured as their ability to protect against the thermal aggregation of three chaperone target proteins βH crystallin, ADH and CS in chaperone assays performed at 50° C. (FIG. 19). A non-interactive αB crystallin sequence 111HGKHEERQDE120 was used as the negative control in the chaperone assays (FIG. 19). Based on near and far UVCD, the three target proteins unfolded in the order: CS>>>ADH>>βH crystallin when they were heated at 50° C. for sixty minutes (FIGS. 15 and 16). The thermal aggregation of βH crystallin, ADH and CS was measured as light scattering at λ=340 nm in the presence and absence of each peptide. The chaperone activity of each peptide was calculated as percent protection in which the aggregation of each target protein in the absence of any peptides was set at 0% protection (FIG. 19). The interactive peptides […] and 131LTITSSLSDGV141 were effective inhibitors of aggregation of all three chaperone target proteins.
# A (top left): thermal aggregation of chaperone target proteins βH crystallin, ADH and CS in the absence of peptides was measured as light scattering at λ=340 nm. […] The chaperone activity of each peptide was calculated as percent protection in which the aggregation of each target protein in the absence of any peptides was set at 0% protection. […]
sequence,measurement,value
DRFSVNLDVKHFS,percent protection against thermal aggregation of CS,greater than 70%
